Experimental data taken from article PMC6633398.

Amino acid sequences for entries named in this document (tags omitted). A change or cut given only in a name is not applied to a line headed by its entry.
UniProt O43681: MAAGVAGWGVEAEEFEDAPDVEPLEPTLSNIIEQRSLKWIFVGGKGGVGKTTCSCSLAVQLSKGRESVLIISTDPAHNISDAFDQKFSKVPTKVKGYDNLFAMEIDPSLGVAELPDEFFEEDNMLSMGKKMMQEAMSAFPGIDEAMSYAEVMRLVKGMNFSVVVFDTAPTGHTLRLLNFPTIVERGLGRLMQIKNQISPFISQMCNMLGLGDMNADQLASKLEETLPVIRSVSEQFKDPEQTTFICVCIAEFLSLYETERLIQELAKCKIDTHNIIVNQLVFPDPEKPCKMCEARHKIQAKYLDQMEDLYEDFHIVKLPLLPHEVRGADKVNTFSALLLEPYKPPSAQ

B1: golgin-84 (also known as GOLGA5) (protein, UniProt Q8TBA6 1-731)
chain: MSWFVDLAGKAEDLLNRVDQGAATALSRKDNASNIYSKNTDYTELHQQNTDLIYQTGPKSTYISSAADNIRNQKATILAGTANVKVGSRTPVEASHPVENASVPRPSSHFVRRKKSEPDDELLFDFLNSSQKEPTGRVEIRKEKGKTPVFQSSQTSSVSSVNPSVTTIKTIEENSFGSQTHEAASNSDSSHEGQEESSKENVSSNAACPDHTPTPNDDGKSHELSNLRLENQLLRNEVQSLNQEMASLLQRSKETQEELNKARARVEKWNADHSKSDRMTRGLRAQVDDLTEAVAAKDSQLAVLKVRLQEADQLLSTRTEALEALQSEKSRIMQDQSEGNSLQNQALQTFQERLHEADATLKREQESYKQMQSEFAARLNKVEMERQNLAEAITLAERKYSDEKKRVDELQQQVKLYKLNLESSKQELIDYKQKATRILQSKEKLINSLKEGSGFEGLDSSTASSMELEELRHEKEMQREEIQKLMGQIHQLRSELQDMEAQQVNEAESAREQLQDLHDQIAGQKASKQELETELERLKQEFHYIEEDLYRTKNTLQSRIKDRDEEIQKLRNQLTNKTLSNSSQSELENRLHQLTETLIQKQTMLESLSTEKNSLVFQLERLEQQMNSASGSSSNGSSINMSGIDNGEGTRLRNVPVLFNDTETNLAGMYGKVRKAASSIDQFSIRLGIFLRRYPIARVFVIIYMALLHLWVMIVLLTYTPEMHHDQPYGK
B2: CASP (encoded by CUX1; isoform 4) (protein, UniProt Q13948 1-678)
chain: MAANVGSMFQYWKRFDLQQLQRELDATATVLANRQDESEQSRKRLIEQSREFKKNTPEDLRKQVAPLLKSFQGEIDALSKRSKEAEAAFLNVYKRLIDVPDPVPALDLGQQLQLKVQRLHDIETENQKLRETLEEYNKEFAEVKNQEVTIKALKEKIREYEQTLKNQAETIALEKEQKLQNDFAEKERKLQETQMSTTSKLEEAEHKVQSLQTALEKTRTELFDLKTKYDEETTAKADEIEMIMTDLERANQRAEVAQREAETLREQLSSANHSLQLASQIQKAPDVEQAIEVLTRSSLEVELAAKEREIAQLVEDVQRLQASLTKLRENSASQISQLEQQLSAKNSTLKQLEEKLKGQADYEEVKKELNILKSMEFAPSEGAGTQDAAKPLEVLLLEKNRSLQSENAALRISNSDLSGRCAELQVRITEAVATATEQRELIARLEQDLSIIQSIQRPDAEGAAEHRLEKIPEPIKEATALFYGPAAPASGALPEGQVDSLLSIISSQRERFRARNQELEAENRLAQHTLQALQSELDSLRADNIKLFEKIKFLQSYPGRGSGSDDTELRYSSQYEERLDPFSSFSKRERQRKYLSLSPWDKATLSMGRLVLSNKMARTIGFFYTLFLHCLVFLVLYKLAWSESMERDCATFCAKKFADHLHKFHENDNGAAAGDLWQ
B3: LAP2B (protein, UniProt P42167 1-454)
chain: MPEFLEDPSVLTKDKLKSELVANNVTLPAGEQRKDVYVQLYLQHLTARNRPPLPAGTNSKGPPDFSSDEEREPTPVLGSGAAAAGRSRAAVGRKATKKTDKPRQEDKDDLDVTELTNEDLLDQLVKYGVNPGPIVGTTRKLYEKKLLKLREQGTESRSSTPLPTISSSAENTRQNGSNDSDRYSDNEEDSKIELKLEKREPLKGRAKTPVTLKQRRVEHNQSYSQAGITETEWTSGSSKGGPLQALTRESTRGSRRTPRKRVETSEHFRIDGPVISESTPIAETIMASSNESLVVNRVTGNFKHASPILPITEFSDIPRRAPKKPLTRAEVGEKTEERRVERDILKEMFPYEASTPTGISASCRRPIKGAAGRPLELSDFRMEESFSSKYVPKYVPLADVKSEKTKKGRSIPVWIKILLFVVVAVFLFLVYQAMETNQVNPFSNFLHVDPRKSN
B4: UBL4A (protein, UniProt P11441 1-157)
chain: MQLTVKALQGRECSLQVPEDELVSTLKQLVSEKLNVPVRQQRLLFKGKALADGKRLSDYSIGPNSKLNLVVKPLEKVLLEEGEAQRLADSPPPQVWQLISKVLARHFSAADASRVLEQLQRDYERSLSRLTLDDIERLASRFLHPEVTETMEKGFSK
B5: UBE2J1 (protein, UniProt Q9Y385 1-318)
chain: METRYNLKSPAVKRLMKEAAELKDPTDHYHAQPLEDNLFEWHFTVRGPPDSDFDGGVYHGRIVLPPEYPMKPPSIILLTANGRFEVGKKICLSISGHHPETWQPSWSIRTALLAIIGFMPTKGEGAIGSLDYTPEERRALAKKSQDFCCEGCGSAMKDVLLPLKSGSDSSQADQEAKELARQISFKAEVNSSGKTISESDLNHSFSLTDLQDDIPTTFQGATASTSYGLQNSSAASFHQPTQPVAKNTSMSPRQRRAQQQSQRRLSTSPDVIQGHQPRDNHTDHGGSAVLIVILTLALAALIFRRIYLANEYIFDFEL
B6: syntaxin Stx5 (protein, UniProt Q13190 1-355)
chain: MIPRKRYGSKNTDQGVYLGLSKTQVLSPATAGSSSSDIAPLPPPVTLVPPPPDTMSCRDRTQEFLSACKSLQTRQNGIQTNKPALRAVRQRSEFTLMAKRIGKDLSNTFAKLEKLTILAKRKSLFDDKAVEIEELTYIIKQDINSLNKQIAQLQDFVRAKGSQSGRHLQTHSNTIVVSLQSKLASMSNDFKSVLEVRTENLKQQRSRREQFSRAPVSALPLAPNHLGGGAVVLGAESHASKDVAIDMMDSRTSQQLQLIDEQDSYIQSRADTMQNIESTIVELGSIFQQLAHMVKEQEETIQRIDENVLGAQLDVEAAHSEILKYFQSVTSNRWLMVKIFLILIVFFIIFVVFLA
B7: DCAKD (protein, UniProt Q8WVC6 1-231)
chain: MFLVGLTGGIASGKSSVIQVFQQLGCAVIDVDVMARHVVQPGYPAHRRIVEVFGTEVLLENGDINRKVLGDLIFNQPDRRQLLNAITHPEIRKEMMKETFKYFLRGYRYVILDIPLLFETKKLLKYMKHTVVVYCDRDTQLARLMRRNSLNRKDAEARINAQLPLTDKARMARHVLDNSGEWSVTKRQVILLHTELERSLEYLPLRFGVLTGLAAIASLLYLLTHYLLPYA

Target: c-Myc–TRC40_(D74E), ATPase-impaired trap mutant of TRC40 (UniProt O43681)

| binding | Binder |
| --- | --- |
| binds | B1 |
| binds | B2 |

Target: c-Myc–TRC40_(D74E), ATPase-impaired trap mutant of TRC40 (UniProt O43681)
Remark: another data set of the same source

| binding | Binder |
| --- | --- |
| binds | B3 |
| binds | B4 |
| binds | B5 |
| binds | B6 |
| binds | B7 |

No constants are given. Whether binding was seen depends on the method and setting. In cells and extracts the contact can be indirect. A yes stands for co-enrichment or nearness to the bait. Other partners may have been found.
